Counter-ions that a name gives are not always drawn.
How the values were obtained:
Test in all cases: microbe, parasite or virus in culture
Format in all cases: cell-based
MERS-CoV PsV = details: Middle East respiratory syndrome-related coronavirus, 48 h, read-out: IC50, inhibition of MERS-CoV PsV infection
SARS-CoV PsV = details: Severe acute respiratory syndrome coronavirus, 48 h, read-out: IC50, inhibition of SARS-CoV PsV infection
SARS-CoV-2 (D614) PsV = details: Severe acute respiratory syndrome coronavirus 2, 48 h, read-out: IC50, inhibition of SARS-CoV-2 (D614) PsV infection

Compound CN1CCN(CCCN2c3ccccc3Sc3ccc(Cl)cc32)CC1 [Prochlorperazine maleate, prochlorperazine maleate] has an IC50 (MERS-CoV PsV) of 0.855 µM, an IC50 (SARS-CoV PsV) of 0.773 µM and an IC50 (SARS-CoV-2 (D614) PsV) of 0.259 ± 0.048 µM.
